{"source": "paper PMC8192900", "about": "“Label-free high-throughput screening assay for the identification of norepinephrine transporter (NET/SLC6A2) inhibitors” (Scientific Reports, 2021)", "tested_on": "JumpIn-NET cells", "assay": "Effect of NET inhibitor alone on normalized Cell Index during 1 h pretreatment (xCELLigence)", "type": "cell-based, human", "conditions": "10 µM, +dox JumpIn-NET cells"}
{"compound": "CNCCCC12CCC(c3ccccc31)c1ccccc12.Cl", "note": "[Maprotiline, maprotiline hydrochloride]", "values": [{"measurement": "Effect on nCI during pretreatment at highest tested concentration", "value": "transient increase in nCI"}]}
{"compound": "CN1C2CCC1CC(OC(c1ccccc1)c1ccccc1)C2.CS(=O)(=O)O", "note": "(centres unmarked) [Benztropine, Benztropine mesylate]", "values": [{"measurement": "Effect on nCI during pretreatment at highest tested concentration", "value": "transient increase in nCI"}]}
